The record followed here is PubChem BioAssay AID2685 (National Center for Advancing Translational Sciences (NCATS), 2010).

The list shows a part of the results. Shown are side measurements of this screen, not its main read-out; they come without a call. Compounds called inactive in the main read-out are mostly missing here. Words in brackets tell the shape of the fitted curve; partial curves, single points and poor fits give uncertain potencies.

By AC50 is commonly meant the concentration at which the activity in the assay is half-maximal. Read a low AC50 as greater potency.

A short description of this assay: qHTS Assay for Lipid Storage Modulators in Drosophila S3 Cells.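 As to cell number change: cells counted by Cell Tracker Red CMTPX staining in the red channel.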 Conditions: BODIPY lipid droplet fluorescence, 18-24 h; for cell number change: measured here: cell count max response, cells fed with added oleic acid. Summed up: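 Drosophila S3 cells loaded with oleic acid (400 uM, as added) and compounds at several concentrations; lipid droplets imaged by 488-nm laser-scanning cytometry, 500–530 nm intensity and object ratio to cell channel. Percent activity normalized to 20 uM Triacsin C.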

[1] abbreviates: measured here: lipid fluorescence (Fed channel) AC50, cells fed with added oleic acid.
Setting [2] is: measured here: cell number channel AC50, cells fed with added oleic acid.

With `O=C(CCN1C(=O)[C@@H]2Cc3ccccc3CN2C1=O)N[C@@H](Cc1ccccc1)C(=O)O`, the cell number change is 13.7%. The AC50 under setting [1] is 29.1 µM [rising, single point]. Take `O=C(NCc1ccco1)c1cccc(S(=O)(=O)N2CCOCC2)c1`: the cell number change is -2.04%. Under setting [1], the concentration at half-maximal activity (AC50) is 6.51 µM [rising, single point]. For the molecule `COCCCN1C(=O)C(=O)/C(=C(/O)c2ccc(C)cc2)C1c1ccccc1` (stereo unspecified), the cell number change is 3.76%. Also, under setting [2], the AC50 was 0.00517 µM [falling, full curve, poor fit]. For `COc1ccccc1NS(=O)(=O)c1ccc2c(c1)OCCO2`, the cell number change is -0.403%. The AC50 under setting [1] is 20.6 µM [rising, single point].

With `CCOC(=O)Cc1csc(Nc2c(C)n(C)n(-c3ccccc3)c2=O)n1`, the cell number change worked out at 4.25%. The AC50 under setting [1] was 6.51 µM [falling, single point]. Turning to `CC(C)(C)NC(=O)/C(=C/c1cccnc1)NC(=O)c1ccco1`, the cell number change is -31.2%. Besides, under setting [2], the concentration at half-maximal activity (AC50) was 14.6 µM [falling, partial curve, poor fit]. Under setting [1], the AC50 was 7.31 µM [falling, partial curve, poor fit].

With `CN(C)c1ccc(N=Nc2ccccc2C(=O)OCC(=O)N(C)c2ccccc2)cc1`, the cell number change is -75.2%. Also, the AC50 under setting [2] was 29.1 µM [falling, single point]. In addition, the half-maximal activity concentration (AC50) under setting [1] is 25.9 µM [falling, partial curve]. In the case of `Fc1ccc(COc2cccc3cccnc23)cc1`, the cell number change is -41.6%. For the molecule `CCOc1cc(C(=O)N2CCc3cc(OC)c(OC)cc3C2)ccc1OC(F)F`, the cell number change was 1.25%. Take `CC12CCC(C(=O)N3CCN(Cc4ccccc4)CC3)(OC1=O)C2(C)C` (stereo unspecified): the cell number change was found to be 6.83%.

Regarding `Cc1ccnc(SCc2cn3c(C)cc(C)nc3n2)n1`, the cell number change was determined as 32.7%. Take `O=C(O)CC(NC(=O)c1cccc(F)c1)c1ccc(OC2CCCC2)cc1` (stereo unspecified): under setting [1], the AC50 was 6.51 µM [rising, single point]. Regarding `Cn1c(SCC(=O)Nc2ccc(F)cc2)nc2c(c1=O)SCC2`, the cell number change was -7.62%. As for `C#CCOCCOCCOCCNc1nc(N2CCN(C(=O)CCCCCCCCCCNC(=O)Cn3cc(C[C@@H](C)O)nn3)CC2)nc(N2CCN(C(=O)CCCCCCCCCCNC(=O)[C@H](CO)n3cc(CCCSC)nn3)CC2)n1`, the cell number change was 8.84%. The AC50 under setting [2] is 0.411 µM [falling, partial curve, poor fit]. Also, the AC50 under setting [1] is 6.51 µM [rising, single point].

`COc1ccc(NC(=O)c2sc3ncn(CC(=O)N4CCCCC4)c(=O)c3c2C)cc1OC`: the cell number change was 19.4%. The AC50 under setting [1] was 32.6 µM [rising, single point]. In the case of `CCOc1ccccc1/C=N/n1c(COc2ccccc2)n[nH]c1=S`, the cell number change is -15.3%. The AC50 under setting [1] is 0.326 µM [falling, full curve]. Take `CCC(C)(C)n1nnnc1C(C(C)C)N1CCSCC1` (stereo unspecified): the cell number change was -18.8%. Consider `COc1ccc(S(=O)(=O)NCc2cn3c(C)csc3n2)cc1F`, for which the AC50 is 2.31 µM [rising, partial curve] under setting [2] and 2.06 µM [rising, partial curve] under setting [1]. For the molecule `Cc1ccccc1C(=O)Nc1ccc(C(=O)N/N=C/c2ccc(O)cc2)cc1`, the cell number change is -1.71%. For the same molecule, the AC50 under setting [1] is 29.1 µM [falling, single point]. For the molecule `CCc1nc(CNC(=O)C2CCC(=O)N(CCc3ccc(OC)cc3)C2)cs1` (stereo unspecified), the cell number change came to 4.69%.

`COc1ccc(-c2csc(NC(=O)C3CCN(c4ncnc5sc(C)c(C)c45)CC3)n2)cc1OC`: the cell number change came to 40%. The half-maximal activity concentration (AC50) under setting [2] was 4.61 µM [rising, single point]. `O=C(NCc1ccco1)c1scc2c1OCCO2`: the cell number change is -1.53%. For the same molecule, the AC50 under setting [1] was 29.1 µM [rising, single point]. Consider `O=C(c1ccc2nccnc2c1)N1CCN(c2cccc(C(F)(F)F)c2)CC1`, for which the cell number change is -42.2%. For the same molecule, the half-maximal activity concentration (AC50) under setting [2] was 29.1 µM [falling, single point]. Further, under setting [1], the AC50 is 9.2 µM [falling, partial curve]. For the molecule `COc1ccc(C(=O)CCC(=O)N2CCN(c3cc(C)ccc3C)CC2)cc1`, the cell number change turned out to be 25.8%. The AC50 under setting [2] was 0.0731 µM [rising, full curve, poor fit].

Take `Cc1nn(C(=O)c2cccc([N+](=O)[O-])c2)c(C)c1Sc1ccccc1`: the cell number change worked out at 8.71%. The AC50 under setting [1] is 2.06 µM [rising, full curve, poor fit]. With `O=C1C2C3C=CC(C3)C2C(=O)N1c1cccnc1` (stereo unspecified), the cell number change turned out to be 30.9%. Besides, under setting [2], the half-maximal activity concentration (AC50) was 29.1 µM [rising, single point]. As for `O=C(Cc1ccccc1)N1CCc2ccccc21`, the cell number change is -36.7%. For `Fc1cccc(/C=N/Nc2ccc(Cl)nn2)c1`, the cell number change is -29%. For the same molecule, the half-maximal activity concentration (AC50) under setting [1] was 16.4 µM [falling, single point]. Take `Cc1cc2c(n1-c1ccc(C(=O)O)cc1)CCCCC2`: the cell number change was found to be 5.41%. For the same molecule, under setting [2], the AC50 was 0.13 µM [falling, full curve, poor fit]. Besides, the AC50 under setting [1] is 1.03 µM [falling, full curve]. For the molecule `CCCCC(=O)c1c(C)cc(C)[nH]c1=O`, the cell number change was -20.2%. Further, the AC50 under setting [1] was 29.1 µM [falling, single point]. Consider `COC(=O)CC(c1ccc(C#N)cc1)n1c(C)ccc1C` (stereo unspecified), for which the cell number change is -12%. Further, the AC50 under setting [1] is 25.9 µM [falling, single point].

For the molecule `OCCNc1nc(Nc2ccc(Cl)c(Cl)c2)nc2ccccc12`, the cell number change was -69.3%. Also, under setting [2], the concentration at half-maximal activity (AC50) is 18.4 µM [falling, partial curve]. Moreover, under setting [1], the concentration at half-maximal activity (AC50) is 2.31 µM [falling, full curve]. Regarding `Nn1c(-c2ccccn2)nnc1-c1ccccn1`, the cell number change stood at 130%. Further, the AC50 under setting [2] is 9.2 µM [rising, partial curve]. Moreover, the AC50 under setting [1] was 5.8 µM [rising, partial curve]. With `COc1ccc(CC(=O)Nc2oc(-c3ccccc3)c(-c3ccccc3)c2C#N)cc1OC`, the cell number change is -37.9%. Under setting [2], the half-maximal activity concentration (AC50) was 18.4 µM [falling, single point]. The AC50 under setting [1] was 16.4 µM [falling, partial curve]. `O=C(NCCc1ccccn1)c1n[nH]c(=O)c2ccccc12`: the cell number change is -6.35%.

Take `Cc1ccc(Cn2ncc3c(N4CCN(C5CCCC5)CC4)ncnc32)cc1`: the cell number change was -29.3%. In addition, under setting [1], the AC50 was 6.51 µM [falling, single point]. Consider `O=C(CCNC(=O)c1ccccc1Cl)Nc1cc(S(=O)(=O)N2CCOCC2)ccc1N1CCCC1`, for which the AC50 under setting [1] was 0.326 µM [falling, partial curve, poor fit]. On to `CCOC(=O)Cc1csc(SCC(=O)Nc2oc(C)c3c(C)n[nH]c(=O)c23)n1`, for which the cell number change came to 3.89%. Further, the AC50 under setting [1] was 0.00461 µM [rising, full curve, poor fit]. `COC(=O)C(C)Sc1nnc(-c2ccncc2)o1` (stereo unspecified): the cell number change is -171%. In addition, the half-maximal activity concentration (AC50) under setting [2] was 23.1 µM [falling, partial curve]. Moreover, the AC50 under setting [1] was 18.4 µM [falling, partial curve]. Regarding `COc1ccc(N2C(=O)CC(S/C(N)=N/N=C/c3ccnc4ccccc34)C2=O)cc1` (stereo unspecified), the cell number change was -18.7%. The AC50 under setting [1] was 0.461 µM [falling, single point]. Regarding `COc1ccc(S(=O)(=O)N2CN3CCN(C3)C2)cc1OC`, the cell number change is 29.2%. Moreover, under setting [1], the AC50 was 0.58 µM [rising, single point]. Regarding `COc1ccc(C/C(O)=C(\C#N)c2nc3ccccc3[nH]2)cc1OC`, the cell number change was 12.6%. The half-maximal activity concentration (AC50) under setting [1] is 0.13 µM [rising, full curve, poor fit]. `Cc1cc(C)nc(SCc2nnc(SCC#N)n2-c2cccc(Cl)c2)n1`: the cell number change is -31.5%. The AC50 under setting [2] was 13 µM [falling, partial curve, poor fit]. Consider `CC(C)(C)c1cc(NC(=O)Nc2ccccc2)no1`, for which the cell number change was -28.9%. Further, the concentration at half-maximal activity (AC50) under setting [1] is 32.6 µM [falling, single point]. With `CC(=O)Nc1ccc(C(=O)N/N=C/c2cc(Br)cc(Br)c2O)cc1`, the cell number change is -19.1%. Under setting [1], the AC50 is 0.184 µM [falling, full curve, poor fit]. On to `COc1cc(NS(C)(=O)=O)ccc1Nc1c2ccccc2nc2ccccc12`, for which the cell number change was -1.77%. Further, under setting [1], the AC50 was 1.84 µM [rising, full curve]. Regarding `CN(C)c1cccc(C(=O)OCC(=O)N2CCc3ccccc3C2)c1`, the cell number change was -31.6%. The concentration at half-maximal activity (AC50) under setting [2] is 32.6 µM [falling, single point]. Moreover, under setting [1], the AC50 was 29.1 µM [falling, single point]. As for `CS(=O)(=O)Nc1ccc(C2=NN(C(=O)C3CCCCC3)C(c3cccs3)C2)cc1` (stereo unspecified), the cell number change was -1.1%. In addition, the AC50 under setting [1] is 6.51 µM [rising, partial curve, poor fit]. In the case of `N#Cc1nc(-c2ccc(Cl)cc2)oc1NCC1CCCO1` (stereo unspecified), the cell number change came to 7.7%. For `COc1ccc2[nH]cc(CCNC(=O)c3ccc4ccccc4n3)c2c1`, under setting [1], the AC50 was 6.51 µM [falling, single point].

`S=C(NCc1ccc(Cl)cc1)Nc1ccc(Cl)cc1Cl`: the cell number change was -45.9%. For the same molecule, the AC50 under setting [2] is 18.4 µM [falling, partial curve]. In addition, under setting [1], the AC50 is 14.6 µM [falling, partial curve]. On to `O=C(O)CSCC(=O)NCc1ccccc1Cl`, for which the cell number change is -4.78%. In addition, under setting [2], the half-maximal activity concentration (AC50) was 6.51 µM [rising, single point]. For the same molecule, the AC50 under setting [1] is 0.00651 µM [falling, full curve, poor fit].

`CCOC(=O)c1ccc(Nc2nnc3nc(C)cc(C)n23)cc1`: the cell number change turned out to be 111%. Besides, under setting [2], the AC50 is 29.1 µM [rising, single point]. Consider `O=C(COC(=O)c1cccc(F)c1)Nc1ccc2c(c1)OCCO2`, for which the cell number change was -15%. The AC50 under setting [1] is 0.651 µM [falling, full curve]. For the molecule `O=C1N(CN2CCC3(CC2)OCCO3)c2ccccc2C12OCCCO2`, the cell number change came out at 0.703%. For `COc1ccc(CCNC(=O)CCS(=O)(=O)c2ccc3c(c2)NC(=O)C(C)S3)cc1OC` (stereo unspecified), the cell number change came to 1.83%. The AC50 under setting [1] was 9.2 µM [rising, partial curve]. With `Cc1nn(C(=O)c2ccco2)c(C)c1Sc1ccc([N+](=O)[O-])cc1`, the cell number change is -1.95%.

Regarding `S=c1[nH]nc(-c2cc(-c3ccccc3)n[nH]2)n1/N=C/c1c2ccccc2cc2ccccc12`, the cell number change is -38.5%. Also, the concentration at half-maximal activity (AC50) under setting [2] is 14.6 µM [falling, single point]. The AC50 under setting [1] is 16.4 µM [falling, partial curve].

In the case of `O=c1[nH]c(=S)[nH]c2c1C(c1cc([N+](=O)[O-])c(N3CCOCC3)cc1N1CCOCC1)O2` (stereo unspecified), the cell number change was determined as 67.3%. Also, the AC50 under setting [2] was 29.1 µM [rising, partial curve, poor fit].
